{"sequences": {"note": "By UniProt entry, the sequences of proteins in these tests, tags left out.", "UniProt P08047, whole entry": "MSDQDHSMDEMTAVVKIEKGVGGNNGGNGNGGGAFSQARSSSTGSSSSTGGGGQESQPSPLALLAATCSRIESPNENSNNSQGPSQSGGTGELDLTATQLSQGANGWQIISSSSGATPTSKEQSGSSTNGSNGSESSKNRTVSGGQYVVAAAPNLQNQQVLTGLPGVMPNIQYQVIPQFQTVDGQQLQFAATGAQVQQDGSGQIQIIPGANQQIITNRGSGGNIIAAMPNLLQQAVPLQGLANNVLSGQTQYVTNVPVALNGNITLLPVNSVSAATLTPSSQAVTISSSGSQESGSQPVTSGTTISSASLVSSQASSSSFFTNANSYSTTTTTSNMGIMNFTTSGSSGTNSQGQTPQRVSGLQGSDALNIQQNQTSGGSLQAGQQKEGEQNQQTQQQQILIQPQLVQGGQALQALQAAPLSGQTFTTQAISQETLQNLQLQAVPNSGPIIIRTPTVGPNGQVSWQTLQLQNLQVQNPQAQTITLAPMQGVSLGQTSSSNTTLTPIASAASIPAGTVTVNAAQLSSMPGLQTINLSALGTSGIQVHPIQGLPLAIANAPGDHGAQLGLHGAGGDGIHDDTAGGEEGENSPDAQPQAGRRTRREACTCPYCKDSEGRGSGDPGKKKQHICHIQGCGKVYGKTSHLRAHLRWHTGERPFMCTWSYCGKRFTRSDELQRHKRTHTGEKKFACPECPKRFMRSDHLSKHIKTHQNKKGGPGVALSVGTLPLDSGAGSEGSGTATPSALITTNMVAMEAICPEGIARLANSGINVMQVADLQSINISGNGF"}, "source": "paper PMC5829641", "target": "Sp1 (TIG-1 nuclear extract) (Homo sapiens (TIG-1 normal fibroblasts)) (UniProt P08047)", "assay": "competition with a labelled probe", "conditions": "unlabeled competitor abolishes binding to XRCC1 probe, protein in an extract", "note": "Construct, isoform or probe ends are uncertain for at least one entry. Results from cells or extracts need not show a direct contact.", "data": [{"sequence": "ATTCGATCGGGGCGGGGCGAGC (double strand) [Sp1 consensus competitor]", "values": [{"measurement": "binding result", "value": "binds"}]}]}
